Reference: PubChem BioAssay AID504744 (Drosophila RNAi Screening Center, 2011)
Assay: 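Identify dsRNAs that increase or decrease phospho-dAkt after insulin treatment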 (primary screen). Cell system: Drosophila Kc167 cells. Reagents: long dsRNA against Drosophila genes, 250 ng dsRNA per well of a 384-well plate. Duration: 3 days of knock-down, then overnight serum-free starvation before stimulation. Conditions: bovine insulin at 387 nM for 10 minutes after 12 h without serum. Detection: 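In-cell antibody fluorescence for phospho-dAkt in each well over DNA-dye signal, with log2 residuals expressed as z-scores adjusted for cell count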. Call rule: 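Under insulin, a gene counts as a hit if the average z-score of two replicates lies above 2.5 or below -2.5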.
In all, the deposit lists about 23,000 reagents; below is an unselected part of those that have a named target and a result. Of all reagents, 98 (0.43%) were called active. 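Only hit calls are given; the phospho-dAkt signals, z-scores and hit direction were not deposited.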 A plus sign joins genes that one reagent is predicted to hit.

The opening 7 records, ahead of the listing:
{"Target gene": "qvr", "DRSC id": "DRSC05280", "call": "inactive"}
{"Target gene": "CG14907 + Mettl4", "DRSC id": "DRSC15026", "call": "inactive"}
{"Target gene": "CG14907 + Mettl4", "DRSC id": "DRSC15027", "call": "inactive"}
{"Target gene": "t-Grip128", "DRSC id": "DRSC07853", "call": "inactive"}
{"Target gene": "MRG15", "DRSC id": "DRSC16731", "call": "inactive"}
{"Target gene": "Prp19", "DRSC id": "DRSC07434", "call": "inactive"}
{"Target gene": "CG31924", "DRSC id": "DRSC00689", "call": "inactive"}

Main list, repeating the preview:
{"Target gene": "qvr", "DRSC id": "DRSC05280", "call": "inactive"}
{"Target gene": "CG14907 + Mettl4", "DRSC id": "DRSC15026", "call": "inactive"}
{"Target gene": "CG14907 + Mettl4", "DRSC id": "DRSC15027", "call": "inactive"}
{"Target gene": "t-Grip128", "DRSC id": "DRSC07853", "call": "inactive"}
{"Target gene": "MRG15", "DRSC id": "DRSC16731", "call": "inactive"}
{"Target gene": "Prp19", "DRSC id": "DRSC07434", "call": "inactive"}
{"Target gene": "CG31924", "DRSC id": "DRSC00689", "call": "inactive"}
{"Target gene": "CG1213", "DRSC id": "DRSC12191", "call": "inactive"}
{"Target gene": "Klp68D", "DRSC id": "DRSC11206", "call": "inactive"}
{"Target gene": "CG10947", "DRSC id": "DRSC02111", "call": "inactive"}
{"Target gene": "Glyp", "DRSC id": "DRSC00752", "call": "inactive"}
{"Target gene": "scyl", "DRSC id": "DRSC11392", "call": "inactive"}
{"Target gene": "CG2962", "DRSC id": "DRSC18247", "call": "inactive"}
{"Target gene": "CG10560", "DRSC id": "DRSC14256", "call": "inactive"}
{"Target gene": "CG14787", "DRSC id": "DRSC18606", "call": "inactive"}
{"Target gene": "CG16852", "DRSC id": "DRSC01876", "call": "inactive"}
{"Target gene": "Bicra", "DRSC id": "DRSC14417", "call": "inactive"}
{"Target gene": "CG15765", "DRSC id": "DRSC18071", "call": "inactive"}
{"Target gene": "mAChR-C", "DRSC id": "DRSC17890", "call": "inactive"}
{"Target gene": "Irk3", "DRSC id": "DRSC02047", "call": "inactive"}
{"Target gene": "RpS10b", "DRSC id": "DRSC19561", "call": "inactive"}
{"Target gene": "Arc42", "DRSC id": "DRSC14340", "call": "inactive"}
{"Target gene": "Arc42", "DRSC id": "DRSC15627", "call": "inactive"}
{"Target gene": "CG9777", "DRSC id": "DRSC20208", "call": "inactive"}
{"Target gene": "CG14411", "DRSC id": "DRSC19597", "call": "inactive"}
{"Target gene": "Obp58b", "DRSC id": "DRSC04161", "call": "inactive"}
{"Target gene": "CG11999", "DRSC id": "DRSC12185", "call": "inactive"}
{"Target gene": "Cap-D3 + tomb", "DRSC id": "DRSC02347", "call": "inactive"}
{"Target gene": "CG7218", "DRSC id": "DRSC16216", "call": "inactive"}
{"Target gene": "dpr1", "DRSC id": "DRSC05906", "call": "inactive"}
{"Target gene": "dpr1", "DRSC id": "DRSC06399", "call": "inactive"}
{"Target gene": "slgA", "DRSC id": "DRSC20586", "call": "inactive"}
{"Target gene": "HP4", "DRSC id": "DRSC10958", "call": "inactive"}
{"Target gene": "CG10205", "DRSC id": "DRSC05979", "call": "inactive"}
{"Target gene": "Golgin84", "DRSC id": "DRSC15269", "call": "inactive"}
{"Target gene": "ttm2", "DRSC id": "DRSC08268", "call": "inactive"}
{"Target gene": "shakB", "DRSC id": "DRSC20492", "call": "inactive"}
{"Target gene": "shakB", "DRSC id": "DRSC20585", "call": "inactive"}
{"Target gene": "shakB", "DRSC id": "DRSC22817", "call": "inactive"}
{"Target gene": "CG10089", "DRSC id": "DRSC09694", "call": "inactive"}
{"Target gene": "CG10089", "DRSC id": "DRSC09695", "call": "inactive"}
{"Target gene": "tea", "DRSC id": "DRSC06110", "call": "inactive"}
{"Target gene": "tea", "DRSC id": "DRSC06236", "call": "inactive"}
{"Target gene": "SLO2", "DRSC id": "DRSC06212", "call": "inactive"}
{"Target gene": "SLO2", "DRSC id": "DRSC06214", "call": "inactive"}
{"Target gene": "SLO2", "DRSC id": "DRSC06216", "call": "inactive"}
{"Target gene": "SLO2", "DRSC id": "DRSC06218", "call": "inactive"}
{"Target gene": "SLO2", "DRSC id": "DRSC06219", "call": "inactive"}
{"Target gene": "CG15212", "DRSC id": "DRSC10212", "call": "inactive"}
{"Target gene": "CG13021", "DRSC id": "DRSC17893", "call": "inactive"}
{"Target gene": "MFS15", "DRSC id": "DRSC06523", "call": "inactive"}
{"Target gene": "Dna2", "DRSC id": "DRSC18254", "call": "inactive"}
{"Target gene": "Mkp + CG34140", "DRSC id": "DRSC08585", "call": "inactive"}
{"Target gene": "RabX1", "DRSC id": "DRSC04678", "call": "inactive"}
{"Target gene": "fne", "DRSC id": "DRSC20332", "call": "inactive"}
{"Target gene": "fne", "DRSC id": "DRSC22418", "call": "inactive"}
{"Target gene": "Fmr1", "DRSC id": "DRSC16674", "call": "inactive"}
